Experimental data from patent US20210077582A1.
Results are given in words; binding and its absence hold for the method and conditions named. In cells and extracts the contact can be indirect. Some binding calls cover weakened binding; strength is not graded here.

Chains of the proteins cited; added tags and fusions are not shown.
UniProt Q8R4B8: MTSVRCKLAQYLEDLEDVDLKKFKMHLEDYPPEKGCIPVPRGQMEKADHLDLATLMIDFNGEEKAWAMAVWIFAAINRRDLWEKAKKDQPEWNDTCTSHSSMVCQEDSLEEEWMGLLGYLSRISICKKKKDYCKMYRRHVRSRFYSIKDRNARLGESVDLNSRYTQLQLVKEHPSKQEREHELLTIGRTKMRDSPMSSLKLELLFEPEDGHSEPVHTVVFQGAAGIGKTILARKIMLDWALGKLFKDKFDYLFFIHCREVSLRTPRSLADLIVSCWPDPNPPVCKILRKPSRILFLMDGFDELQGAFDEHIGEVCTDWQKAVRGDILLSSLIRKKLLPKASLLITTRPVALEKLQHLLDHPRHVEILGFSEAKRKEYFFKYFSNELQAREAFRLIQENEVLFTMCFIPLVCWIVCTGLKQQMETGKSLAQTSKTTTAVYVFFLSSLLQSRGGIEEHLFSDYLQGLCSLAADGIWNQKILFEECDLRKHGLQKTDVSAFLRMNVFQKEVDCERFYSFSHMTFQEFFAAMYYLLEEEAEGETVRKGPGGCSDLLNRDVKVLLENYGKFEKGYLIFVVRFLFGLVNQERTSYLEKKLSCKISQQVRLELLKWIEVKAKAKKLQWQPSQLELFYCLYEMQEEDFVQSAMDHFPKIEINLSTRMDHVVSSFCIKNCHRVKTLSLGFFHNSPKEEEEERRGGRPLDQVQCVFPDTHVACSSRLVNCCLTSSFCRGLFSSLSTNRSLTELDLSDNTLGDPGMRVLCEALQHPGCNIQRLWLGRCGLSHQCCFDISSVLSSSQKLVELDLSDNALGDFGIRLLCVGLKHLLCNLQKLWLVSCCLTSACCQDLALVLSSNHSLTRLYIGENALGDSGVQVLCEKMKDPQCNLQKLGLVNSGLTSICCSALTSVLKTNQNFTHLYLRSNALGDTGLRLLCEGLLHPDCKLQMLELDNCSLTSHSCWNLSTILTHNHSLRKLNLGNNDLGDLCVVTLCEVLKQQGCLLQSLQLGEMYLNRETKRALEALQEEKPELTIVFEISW

Molecular target: NOD-, LRR- and pyrin domain-containing protein-3 (NLRP3) (mouse) (UniProt Q8R4B8)
Assay: co-immunoprecipitation: IP of NLRP3 from BRAFV600E PTEN-/- melanoma cell lysate, Western blot for PKR

binding: binds
B1: dsRNA-dependent protein kinase R (PKR) (enzyme, mouse, UniProt Q03963 2-515, looked up)
chain: ASDTPGFYMDKLNKYRQMHGVAITYKELSTSGPPHDRRFTFQVLIDEKEFPEAKGRSKQEARNAAAKLAVDILDNENKVDCHTSASEQGLFVGNYIGLVNSFAQKKKLSVNYEQCEPNSELPQRFICKCKIGQTMYGTGSGVTKQEAKQLAAKEAYQKLLKSPPKTAGTSSSVVTSTFSGFSSSSSMTSNGVSQSAPGSFSSENVFTNGLGENKRKSGVKVSPDDVQRNKYTLDARFNSDFEDIEEIGLGGFGQVFKAKHRIDGKRYAIKRVKYNTEKAEHEVQALAELNHVNIVQYHSCWEGVDYDPEHSMSDTSRYKTRCLFIQMEFCDKGTLEQWMRNRNQSKVDKALILDLYEQIVTGVEYIHSKGLIHRDLKPGNIFLVDERHIKIGDFGLATALENDGKSRTRRTGTLQYMSPEQLFLKHYGKEVDIFALGLILAELLHTCFTESEKIKFFESLRKGDFSNDIFDNKEKSLLKKLLSEKPKDRPETSEILKTLAEWRNISEKKKRNTC
